{"source": "paper PMC9120067", "test_system": "His6-GB1-SinR + His6-ExpR", "experiment": "EMSA", "conditions": "70 uM His-GB1-SinR, 1 uM His-ExpR, 10 uM 3-oxo-C16:1-HSL, SinR-dependent supershift, 20 mM HEPES-Na pH 7.5, 200 mM NaCl, 50 mM KCl, 20 mM MgCl2, 1 ug/ul BSA, 0.0025 U/ul sonicated sperm DNA, 0.1% DMSO, 2.75 nM DNA, recombinant protein, protein details: N-terminal His6-GB1,His6, label: Cy3 at 5' end of forward primer 264f, probe letters rebuilt from the primers and the genome", "note": "Construct, isoform or probe ends are uncertain for at least one entry."}
{"sequence": "CGTGATTACGCGATGTAGCGATGCTGTCAGGCTCGGATGACACATGTAACTGTCTATAGTGACAGTTTATTTCCTCATTTTTTCCCAATAGATTTGTGGGGGAATCTGCGGGTGGCCGGTCCTGTCCCGGGCCGGCAACCCGTCAGATGGTGGGGATCAGAGCATGTCGAACAGCGT (double strand) [sinI promoter 177 bp fragment]", "values": [{"measurement": "binding result", "value": "binds"}]}
